Construct, isoform or probe ends are uncertain for at least one entry. For part of these data: A negative result means that nothing was seen under these conditions. Protein sequences can lack the tags named with them.
Assays:
Experiment in all cases: activity in cells
[1] = target: T1, HP1alpha CSD-DpnI binding domain (synR-HP1) (Streptococcus pneumoniae) (UniProt P0A459); conditions: N6-methyladenine at A of GATC; silencing of full-length CMV reporter with synI; protein in cells; protein details: HP1alpha chromo shadow domain, NLS; only the motif is given
T1 sequence: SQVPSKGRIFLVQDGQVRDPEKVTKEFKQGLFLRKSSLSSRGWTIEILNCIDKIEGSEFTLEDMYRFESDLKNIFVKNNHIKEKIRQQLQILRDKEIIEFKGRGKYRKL

[2] = target: T2, KRAB-DpnI binding domain (synR-KRAB) (Streptococcus pneumoniae) (UniProt P0A459); conditions: N6-methyladenine at A of GATC; silencing of full-length CMV reporter with synI; protein in cells; protein details: KRAB, NLS; only the motif is given
T2 sequence: T1 sequence

[3] = target: T3, DpnI binding domain-VP64 (synR-VP64) (Streptococcus pneumoniae) (UniProt P0A459); conditions: no significant activation without writer; protein in cells; protein details: NLS, VP64; only the motif is given
T3 sequence: T1 sequence

Row | Sequence | functional effect [1] | functional effect [2] | functional effect [3]
1 | GATC (double strand) [adenine-methylated GATC sites of reporter] | active | active | –
2 | GATC (double strand) [unmethylated GATC sites of reporter (no writer)] | – | – | not active
